Experimental data: PubChem BioAssay AID1259308 (NCATS, 2017)
Purpose: 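Genes whose loss raises luciferase production in HEK293 cells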 (primary screen). Cells: human HEK293 embryonic kidney cells stably expressing firefly luciferase (HEK-CMV-Luc2-Hygro). Reagent: single siRNA against human genes, 0.8 pmol siRNA per well. Timing: 72 h. Read-out: 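Luciferase light (ONE-Glo) measured on one replicate plate set and viability (CellTiter-Glo) on the other, scaled to a negative control siRNA, with robust z-scores and luciferase per cell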. Direction: total luciferase, z-score: higher = more reporter protein produced. Hit rule: 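Active when the median/MAD z-score for overall luciferase is greater than 3; a gene was taken forward for validation with new siRNAs if at least two of its three siRNAs passed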. Meaning of the calls: active = raised luciferase; inactive = no rise.
Shown is a random part of about 59,000 reagents tested. About 1,510 of them (2.6%) count as active. 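Calls use total luciferase alone and ignore viability, so some active siRNAs may act by altering cell number.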 Reagents against one gene are numbered here. Further read-outs or replicates are left out here.

Against CUX1 #1, the entry reads total luciferase, z-score -0.747; inactive. With knock-down of CUX1 #2, the screen gave total luciferase, z-score -1.77; inactive. After knock-down of CUX1 #3, the record shows total luciferase, z-score -1.35; inactive. MITD1 #1 gave total luciferase, z-score 3.05; active. After knock-down of MITD1 #2, the screen gave total luciferase, z-score -0.0553; inactive. Knock-down of MITD1 #3 came out at: total luciferase, z-score 0.516; inactive.

Depletion of DNAJC24 #1 came out at: total luciferase, z-score -1.01; inactive. DNAJC24 #2 gave total luciferase, z-score -0.113; inactive. For DNAJC24 #3 the deposit lists total luciferase, z-score -0.576; inactive. With knock-down of CFAP54 #1, the record shows total luciferase, z-score -0.0974; inactive. Depletion of CFAP54 #2 resulted in: total luciferase, z-score -1.05; inactive. Against CFAP54 #3 the deposit lists total luciferase, z-score 0.22; inactive.

Against CFAP54 #4, the values are total luciferase, z-score 0.216; inactive. Depletion of CFAP54 #5 resulted in: total luciferase, z-score -0.637; inactive. CFAP54 #6 showed total luciferase, z-score 1.66; inactive. For CFAP54 #7, the entry reads total luciferase, z-score 0.655; inactive. Silencing of CFAP54 #8 resulted in: total luciferase, z-score 0.396; inactive. Depletion of CFAP54 #9 gave: total luciferase, z-score -0.416; inactive.

ZNF430 #1 showed total luciferase, z-score 0.431; inactive. With knock-down of ZNF430 #2, the record shows total luciferase, z-score -0.1; inactive. ZNF430 #3 gave total luciferase, z-score -1.7; inactive. Silencing of RAB2A #1 came out at: total luciferase, z-score -0.0891; inactive. With knock-down of RAB2A #2 the results were total luciferase, z-score -0.715; inactive. With knock-down of RAB2A #3, the screen gave total luciferase, z-score -0.818; inactive.

Depletion of WASF1 #1 gave: total luciferase, z-score -2.48; inactive. Depletion of WASF1 #2 came out at: total luciferase, z-score -0.317; inactive. Knock-down of WASF1 #3 resulted in: total luciferase, z-score -0.899; inactive. Against CFAP95 #1 the deposit lists total luciferase, z-score 0.993; inactive. Silencing of CFAP95 #2 resulted in: total luciferase, z-score -0.291; inactive. After knock-down of CFAP95 #3, the record shows total luciferase, z-score -1.57; inactive.

After knock-down of MGME1 #1, the screen gave total luciferase, z-score 0.214; inactive. After knock-down of MGME1 #2 the results were total luciferase, z-score 0.6; inactive. After knock-down of MGME1 #3, the screen gave total luciferase, z-score -0.222; inactive.
